System: WW12
Test: NMR titration (HSQC) of 15N-PY12 with unlabelled WW12
Assay type: binding, human

B1: PY12: LATS1 region PY12 (containing both PPxY motifs; aa 361-567) (protein)
chain: NVVPAGTVNRQPPPPYPLTAANGQSPSALQTGGSAAPSSYTNGSIPQSMMVPNRNSHNMELYNISVPGLQTNWPQSSSAPAQSSPSSGHEIPTWQPNIPVRSNSFNNPLGNRASHSANSQPSATTVTAITPAPIQQPVKSMRVLKPELQTALAPTHPSWIPQPIQTVQPSPFPEGTASNVTVMPPVAEAPNYQGPPPPYPKHLLHQN
modifications: left off: His-tag, end not stated, kept
B1 was tested, and the “HSQC change on addition of WW12” value (15N-labelled PY12, final molar ratio 1:5, 20 mM Tris-HCl pH 7.0, 50 mM NaCl, 3% glycerol, 5 mM DTT, 2 mM EDTA) was “no significant change in the structure of PY12, with a shift in only a few peaks” and the “HSQC of free PY12” value (free 15N-labelled PY12, without WW12) was “unstructured”.

Source: article PMC5814282, “Biophysical studies and NMR structure of YAP2 WW domain - LATS1 PPxY motif complexes reveal the basis of their interaction” (Oncotarget, 2018)
